Measurements taken from patent US11969431B2, “Formulations for treatment of post-traumatic stress disorder” (Glytech LLC, priority 2017, dated 2024).
For at least one compound, name, drawing or mass did not settle the structure.

Tested on: Wistar-Kyoto (WKY) rats
Experiment: Cued fear conditioning / extinction training, freezing behavior in WKY rats
Assay type: in vivo, rat
Conditions: lurasidone 0.2 mg/kg IP
Source text: Inbred Wistar-Kyoto (WKY) rats have been used as models of several behavioral deficits, such as stress vulnerability and sleep disturbance.
Fear memories are crucial in psychiatric conditions such as PTSD. Pavlovian fear conditioning (FC) test is a widely-used behavioral assay in rodents for measurement of aversive learning and memory through learned associations between aversive stimulus (a mild electric shock) and a specific cue (e.g., a tone; cued conditioning) or a context in which electric shock had occurred (contextual conditioning). Once the association is established, the conditioned stimulus (CS, i.e. tone or context) can induce fear response in a similar manner to unconditioned stimulus (US, i.e. electric shock). However, if CS repeatedly presents without combination of US, extinction occurs in normal animals. […]
The experiment was conducted in the fear conditioning system manufactured by Coulbourn Instruments (PA, USA). Animal's body movements are captured with a video system and the FreezeFrame software, and freezing is analyzed automatically by the FreezeView software (Coulbourn Instruments, PA, USA). […]
Percent freezing during bins 7-8 of extinction trainings (24 hr and 72 hr) was used to evaluate effectiveness of treatment. Data were analyzed by […] analyses of variance (ANOVA), with treatment/group and extinction stage (cues or bins) set as factors. […]

For `O=C1[C@@H]2[C@H]3CC[C@H](C3)[C@@H]2C(=O)N1C[C@@H]1CCCC[C@H]1CN1CCN(c2nsc3ccccc23)CC1` [Lurasidone], the “Freezing behavior, direction of change vs. vehicle” value (across days 1 and 3) was “Increase” and the “Freezing behavior, direction of change vs. vehicle” value (across days 1 and 3, listed as lurasidone) was “tended to increase freezing behavior”.
